Taken from: PubChem BioAssay AID504793 (Drosophila RNAi Screening Center, 2011)

Screen: 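Genes required for cells to halt at G2/M after double-strand DNA breaks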 (primary screen)
System: Drosophila S2R+ cells
Reagent: long dsRNA against Drosophila genes, about 0.25 µg dsRNA per well
Time to read-out: 4 days of dsRNA, then 4 hours of drug before read-out
Conditions: doxorubicin 0.5 µM for 4 hours to cause double-strand breaks, in cells also given a low, harmless dose of dsRNA against nbs to sensitise the assay
Detection: 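Per-well count of mitotic cells stained for phospho-histone H3 after doxorubicin exposure, used as mitotic index; counts are raw and not normalised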
Direction: mitotic cells: higher = more cells in mitosis, weaker G2 arrest
Hit rule: 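a call needs confirmation in secondary tests, with other dsRNAs and a check of mitotic timing without damage, not just a high primary count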
Calls: active = confirmed in follow-up tests; inactive = not confirmed
The deposit covers about 23,000 reagents; shown is an unselected part of those with a known target gene and a result. In the full data, 62 (0.27%) were called active. 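Calls come from follow-up tests whose scores are not deposited, so confirmed genes may have low counts here; counts are not normalised per plate.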 Raw values vary from plate to plate and are shown uncorrected. The numbers tell different reagents against one gene apart. A plus sign joins genes that one reagent is predicted to hit. Reagent sequences are not shown.

no.	target gene	reagent no.	mitotic cells, replicate 1	mitotic cells, replicate 2	outcome
1	Apc	1	11		inactive
2	CG4849	1	10		inactive
3	CG4849	2	3		inactive
4	CG33523	1	3		inactive
5	CG33523	2	13		inactive
6	CG11369	1	11		inactive
7	CG32249	1	5		inactive
8	CG32249	2	2		inactive
9	CG32249	3	12		inactive
10	bft (retired record)	1	12		inactive
11	bft (retired record)	2	2		inactive
12	tHMG1	1	10		inactive
13	pippin	1	6		inactive
14	qua	1	6		inactive
15	hep	1	4		inactive
16	hep	2	12		inactive
17	hep	3	8		inactive
18	CG42245 + MEP-1	1	8		inactive
19	CG42245 + MEP-1	2	9		inactive
20	CG42245 + MEP-1	3	41		inactive
21	CG42245 + MEP-1	4	9		inactive
22	CG7692	1	7		inactive
23	CG7692	2	4		inactive
24	Pvf2	1	14		inactive
25	Pvf2	2	4		inactive
26	CG4324	1	2		inactive
27	CG4324	2	7		inactive
28	CG15641	1	13		inactive
29	Gr93a	1	17		inactive
30	NUCB1	1	11		inactive
31	NUCB1	2	6		inactive
32	CG15818	1	2		inactive
33	CG15818	2	3		inactive
34	LysB	1	4		inactive
35	Flo2	1	5		inactive
36	Flo2	2	15		inactive
37	CG4554	1	10		inactive
38	CG4554	2	7		inactive
39	Cep89	1	5		inactive
40	Cep89	2	7		inactive
41	H	1	11		inactive
42	H	2	4		inactive
43	HP1D3csd	1	4		inactive
44	CG18585	1	3		inactive
45	l(3)neo38	1	8		inactive
46	l(3)neo38	2	6		inactive
47	l(3)neo38	3	1		inactive
48	l(3)neo38	4	3		inactive
49	l(3)neo38	5	6		inactive
50	RpL12	1	10		inactive
51	Yp1	1	8		inactive
52	Yp1	2			inactive
53	CG14693	1	1		inactive
54	Adck1	1	10		inactive
55	Drsl5	1	7		inactive
56	Tsp86D	1	3		inactive
57	Hn	1	10		inactive
58	Jasper	1	5		inactive
59	eIF2Balpha	1	5		inactive
60	Mipp2	1	8		inactive
61	Ser12	1	6		inactive
62	CG14866	1	9		inactive
63	Obsc	1	5		inactive
64	Obsc	2	5		inactive
65	Obsc	3	6		inactive
66	Obsc	4	7		inactive
67	Obsc	5	5		inactive
68	Dsp1	1	8		inactive
69	Dsp1	2	9		inactive
70	E(z)	1	1		inactive
71	E(z)	2	9		inactive
72	nvd	1	5		inactive
73	nvd	2	5		inactive
74	TTLL4A	1	6		inactive
75	TTLL4A	2	9		inactive
76	CG10466	1	6		inactive
77	alphaTub67C	1	161		inactive
78	alphaTub67C	2	48		inactive
79	snRNA:U11	1	13		inactive
80	hbn	1	5		inactive
81	hbn	2	3		inactive
82	hbn	3	12		inactive
83	CG13814 (retired record)	1	4		inactive
84	CG1077	1	6		inactive
85	CG1077	2	5		inactive
86	bol	1	5		inactive
87	bol	2	8		inactive
88	bol	3	4		inactive
89	bol	4	7		inactive
90	Gnf1	1	4		inactive
91	Gnf1	2	4		inactive
92	Pal2	1	4		inactive
93	CG5151	1	11		inactive
94	CG5151	2	2		inactive
95	BicD	1	1		inactive
96	CstF64	1	9		inactive
97	CstF64	2	10		inactive
98	CG7849	1	10		inactive
99	CG7849	2	7		inactive
100	TTLL3A	1	4		inactive
101	TTLL3A	2	7		inactive
102	CG14841	1	4		inactive
103	CG14841	2	1		inactive
104	RhoBTB	1	7		inactive
105	Trim9	1	9		inactive
106	Trim9	2	7		inactive
107	Pgm1	1	2		inactive
108	Pgm1	2	5		inactive
109	Chchd2	1	10		inactive
110	Chchd2	2	4		inactive
111	dgt4	1	81		inactive
112	dgt4	2	19		inactive
113	CG14227	1	14		inactive
114	CG14227	2	8		inactive
115	Ada3	1	9		inactive
116	Ada3	2	11		inactive
117	Dph5	1	3		inactive
118	Dph5	2	11		inactive
119	CG18598	1	6		inactive
120	mor	1	9		inactive
121	mor	2	8		inactive
122	TotB	1	6		inactive
123	TfIIEbeta	1	9		inactive
124	CG12078	1	6		inactive
125	Sec10	1	8		inactive
126	Sec10	2	7		inactive
127	mRpL43	1	8		inactive
128	mRpL43	2	11		inactive
129	tbrd-2	1	5		inactive
130	CG33099	1	4		inactive
131	CG33099	2	6		inactive
132	Cox10	1	6		inactive
133	stumps	1	1		inactive
134	stumps	2	3		inactive
135	stnB + stnA	1	9		inactive
136	stnB + stnA	2	27	4	inactive
137	stnB + stnA	3	7		inactive
138	COX6B	1	7		inactive
139	COX6B	2	3		inactive
140	mio	1	10		inactive
141	mio	2	6		inactive

24 successive entries from above:
no.	target gene	reagent no.	mitotic cells, replicate 1	mitotic cells, replicate 2	outcome
87	bol	2	8		inactive
88	bol	3	4		inactive
89	bol	4	7		inactive
90	Gnf1	1	4		inactive
91	Gnf1	2	4		inactive
92	Pal2	1	4		inactive
93	CG5151	1	11		inactive
94	CG5151	2	2		inactive
95	BicD	1	1		inactive
96	CstF64	1	9		inactive
97	CstF64	2	10		inactive
98	CG7849	1	10		inactive
99	CG7849	2	7		inactive
100	TTLL3A	1	4		inactive
101	TTLL3A	2	7		inactive
102	CG14841	1	4		inactive
103	CG14841	2	1		inactive
104	RhoBTB	1	7		inactive
105	Trim9	1	9		inactive
106	Trim9	2	7		inactive
107	Pgm1	1	2		inactive
108	Pgm1	2	5		inactive
109	Chchd2	1	10		inactive
110	Chchd2	2	4		inactive
